Test [1] has as its target signal transducer and activator of transcription 2 (STAT2) (human (endogenous in Huh7 and HepG2)) (UniProt P52630). Nature of the test: co-IP; HCC cell lysate in co-IP buffer, pre-cleared; antibody against STAT2 or control IgG overnight at 4 °C, protein A/G beads, five washes; western blot for TMEM147. In general terms: Immunoblotting shows a protein as a band on a membrane.

The chains behind the UniProt entries cited, without tags or fusion partners.
UniProt P52630: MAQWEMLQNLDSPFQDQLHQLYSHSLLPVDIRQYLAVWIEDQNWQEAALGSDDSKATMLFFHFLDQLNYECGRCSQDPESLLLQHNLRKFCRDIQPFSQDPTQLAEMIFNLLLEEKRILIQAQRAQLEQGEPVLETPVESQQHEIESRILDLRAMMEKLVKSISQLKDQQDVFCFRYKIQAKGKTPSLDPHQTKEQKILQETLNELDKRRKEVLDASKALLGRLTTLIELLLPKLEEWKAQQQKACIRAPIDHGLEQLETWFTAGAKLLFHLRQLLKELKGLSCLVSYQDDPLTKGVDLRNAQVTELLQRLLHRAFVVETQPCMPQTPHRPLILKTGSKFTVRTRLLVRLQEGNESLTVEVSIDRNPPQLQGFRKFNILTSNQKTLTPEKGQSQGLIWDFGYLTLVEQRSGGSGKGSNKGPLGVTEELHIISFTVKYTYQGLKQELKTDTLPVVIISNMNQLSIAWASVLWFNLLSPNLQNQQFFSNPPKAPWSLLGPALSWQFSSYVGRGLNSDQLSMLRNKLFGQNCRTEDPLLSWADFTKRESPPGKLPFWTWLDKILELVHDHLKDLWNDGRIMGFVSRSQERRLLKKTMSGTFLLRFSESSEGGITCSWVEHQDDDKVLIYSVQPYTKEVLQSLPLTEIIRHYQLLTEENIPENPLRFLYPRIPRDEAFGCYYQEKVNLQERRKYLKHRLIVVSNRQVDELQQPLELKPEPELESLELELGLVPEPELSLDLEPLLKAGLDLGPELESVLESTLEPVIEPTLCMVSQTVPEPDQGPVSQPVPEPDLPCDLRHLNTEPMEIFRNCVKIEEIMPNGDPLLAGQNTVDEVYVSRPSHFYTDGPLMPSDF
UniProt Q9BVK8: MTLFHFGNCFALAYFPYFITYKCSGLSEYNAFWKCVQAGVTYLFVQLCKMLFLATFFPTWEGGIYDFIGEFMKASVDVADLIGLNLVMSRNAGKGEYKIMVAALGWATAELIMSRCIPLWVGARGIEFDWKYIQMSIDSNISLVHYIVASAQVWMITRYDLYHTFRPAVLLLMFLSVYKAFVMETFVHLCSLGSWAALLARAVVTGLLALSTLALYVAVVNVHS

The target in test [2] is Flag-TMEM147 (transmembrane protein 147) (human) (UniProt Q9BVK8). Nature of the test: co-IP; HCC cell lysate in co-IP buffer, pre-cleared; antibody against Flag-TMEM147 or control IgG overnight at 4 °C, protein A/G beads, five washes; western blot for STAT2.

These are yes or no findings as the source states them, for the method shown. In cells and extracts the contact can be indirect. Some results given as binding are weak or reduced against the parent protein; the word gives no strength.

In the case of “Flag-TMEM147 (transmembrane protein 147) (from UniProt Q9BVK8 1-224)”, in test [1], the binding entry is reported as “binds”.

For the substance “signal transducer and activator of transcription 2 (STAT2) (from UniProt P52630 1-851)”, in test [2], the binding result is recorded as “binds”.
